Assay results as given in patent publication US7202282B2, “Microemulsions for selective molecular separation” (University of Florida, priority 2002, dated 2007).
At least one compound was matched to its structure with a doubt left.

Assay: selective molecular separation (partitioning) of local anesthetics by a microemulsion having an electron deficient aromatic ring
Type: physicochemical
Details: microemulsion with electron deficient ring oil, e.g. 1,3 di(trifluoromethyl) benzene
Source text: In one embodiment, the materials and/or methods of the subject invention can be used to separate drugs of the same class. A specific embodiment involves separating local anesthetics. […] This is accomplished by exploiting differences in electron density in π electron orbitals.
In these molecules, the π electron orbitals are aligned at right angles to the planar surface of the benzene rings. Differences in substitution by the side chain in cocaine or bupivacaine cause either electron depletion (δ^+) or enrichment (δ^−). Such characteristics can be used to selectively separate these molecules.
According to the subject invention, any oil or “mating” molecule with a benzene ring is acceptable in providing a microemulsion system, as long as the substitutions are electron withdrawing from the benzene ring into the side chains. In this case, the electron deficient ring is a component of a molecule (e.g., 1,3 di(trifluoromethyl) benzene) that, at room and physiological temperatures, is an oil (FIG. 3). Thus, these oil molecules can be used to construct the lipid core of a microemulsion or may be added as solutes into the lipid core of a microemulsion wherein another oil serves as the lipid core.

Structure (SMILES): COC(=O)[C@H]1[C@@H](OC(=O)c2ccccc2)C[C@@H]2CC[C@H]1N2C [cocaine]
- partitioning into the microemulsion (molecular separation, FIG. 4): not
